Publication doi:10.1101/2025.02.23.639767
Results are given in words; binding and its absence hold for the method and conditions named. Binding seen in cells or lysates may run through a third protein. Some entries that bind do so weakly or less than the wild type.

Protein sequences, listed by entry. Tags and fused reporters are not part of them. Lines headed by an entry give the natural chain unless they say otherwise; changes in a name come on top. Chains listed by the source or under a name are the forms on record and can include a tag or linker.
UniProt Q9D4K7: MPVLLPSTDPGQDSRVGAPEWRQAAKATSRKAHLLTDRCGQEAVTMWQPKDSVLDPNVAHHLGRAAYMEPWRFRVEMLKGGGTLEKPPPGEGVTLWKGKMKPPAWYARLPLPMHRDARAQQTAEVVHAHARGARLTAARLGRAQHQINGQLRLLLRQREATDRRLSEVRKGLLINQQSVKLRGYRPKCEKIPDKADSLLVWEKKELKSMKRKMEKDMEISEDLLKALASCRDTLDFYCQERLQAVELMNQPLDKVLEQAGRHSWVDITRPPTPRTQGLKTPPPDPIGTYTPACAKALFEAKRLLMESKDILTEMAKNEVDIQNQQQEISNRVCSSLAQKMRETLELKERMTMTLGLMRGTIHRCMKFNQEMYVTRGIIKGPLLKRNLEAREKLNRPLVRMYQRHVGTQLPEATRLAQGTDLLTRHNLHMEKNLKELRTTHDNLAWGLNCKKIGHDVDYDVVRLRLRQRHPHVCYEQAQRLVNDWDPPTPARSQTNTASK
MYC-tagged CFAP77 (A0A087WRI3-2, form named): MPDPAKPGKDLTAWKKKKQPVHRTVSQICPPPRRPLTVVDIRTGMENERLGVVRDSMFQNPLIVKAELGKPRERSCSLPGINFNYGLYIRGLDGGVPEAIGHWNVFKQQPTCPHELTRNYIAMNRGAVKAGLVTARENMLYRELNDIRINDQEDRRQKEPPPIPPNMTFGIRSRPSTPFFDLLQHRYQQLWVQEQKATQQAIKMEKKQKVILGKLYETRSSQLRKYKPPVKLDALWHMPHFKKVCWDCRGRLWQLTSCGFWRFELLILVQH

Biological target: FLAG-tagged WT-CCDC105 (mouse) (UniProt Q9D4K7)
Assay: co-IP

binding | Substance
binds | HA-tagged WT-CFAP77 (from UniProt A0A087WRI3-2 1-271)
binds | MYC-tagged CFAP77 (from UniProt A0A087WRI3-2 1-271)
